Laboratory results reported in patent US20060162001.
Construct, isoform or probe ends are uncertain for at least one entry. For some of these results: Results from cells or extracts need not show a direct contact.

Columns and labels:
[1] = target: MGR p70 (mammalian grainyhead, p70 isoform) (human) (UniProt Q9NZI5); assay: competition with a labelled probe; details: 10- or 20-fold excess unlabeled En-1 probe markedly reduced MGR binding to Ddc probe in EMSA; JEG-3 nuclear extract; protein in an extract
[2] = target: MGR p70 (mammalian grainyhead, p70 isoform) (human) (UniProt Q9NZI5); assay: activity in cells; details: p70 MGR enhanced luciferase from En-1 promoter region linked to minimal gamma-globin promoter in COS cells; no effect on control promoters; protein in cells; protein details: mammalian expression vector in COS cells
[3] = target: MGR p70 (mammalian grainyhead, p70 isoform) (human) (UniProt Q9NZI5); assay: EMSA; details: JEG-3 nuclear extract, protein in an extract

Sequence: GGACACACACCCAAACCCACACCCACCCACAAACACACAAACCGGCAGTGACAACAACCACCCATCCTTCAATAACAGCAACCA (double strand) [human Engrailed-1 proximal promoter probe]
- binding result [1]: binds
- activity on this sequence [2]: active

Sequence: GGGTAAAAAGTGTGAACAATCAAACCAGTTGGCA (double strand) [Drosophila PCNA promoter probe]
- binding result ([3]; complex supershifted by anti-p70 antisera 67 and ablated by antisera 611 (common to p49/p70)): binds

Sequence: GGTGGTGCTCTAATAACCGGTTTCCAAGATGCGC (double strand) [Drosophila Dopa decarboxylase (Ddc) promoter probe]
- binding result ([3]; supershifted by antisera 67, ablated by 50-fold excess unlabeled Ddc probe): binds
